In patent US20160051594A1, “Therapeutic Compositions and Uses Thereof” (MANUKA HEALTH NEW ZEALAND LIMITED, priority 2013, published 2016):
For at least one compound, name, drawing or mass did not settle the structure.

Tested on: HCT-116-R cells (butyrate resistant, derived from HCT-116)
Assay: Apoptotic assay (PE Annexin V, flow cytometry), butyrate-resistant HCT-116-R
Type: cell-based, human
Settings: butyrate 5 mM alone
Method: The human colorectal cell line HCT-116 was obtained from the American Type Culture Collection (Rockville, Md.). The butyrate resistant cell line was derived from HCT-116 by culturing the parental cells in increasing concentrations of butyrate as previously described in Bordonaro […]. The activation of beta-catenin by Wnt signaling mediates the effects of histone deacetylase inhibitors. Exp Cell Res. 2007; 313:1652-66 (including references therein). Colorectal cells were grown in alpha-MEM medium with 10% fetal bovine serum and antibiotics. The concentration of CAPE in the propolis-cyclodextrin complex CD1 was 1.79 μg/100 μg propolis solid encapsulated in the cyclodextrin, or 0.41 μg/100 μg cyclodextrin complex. Stock solutions were prepared in dimethyl sulfoxide, except for butyrate, which was dissolved in water at 1 M concentration. […] All cells (floating and attached) were harvested and stained for apoptotic and necrotic markers using a PE Annexin V Apoptosis Detection Kit I (BD Biosciences, #559763). Flow cytometry analyses were carried out with FACS Aria II and DiVa software. […] All data are presented as mean±standard deviation from at least three sets of independent experiments. Student T-test analysis was used to determine the significance of statistical differences. Differences were considered significant at P<0.05.

`CCCC(=O)O` [butyrate] was tested, and the “apoptosis relative to the negative control” value was “did not undergo significant apoptosis”.
